A short description of this data set: Spike-recovery of samples determined by dc-ELISA.

Each structure is given as a SMILES string.

Take `CCNc1nc(Cl)nc(NC(C)C)n1` [Atrazine]: the Average recovery by setting is: (river water, spiked 1 μg/mL) 103%; (river water, spiked 5 μg/mL) 102%; (river water, spiked 10 μg/mL) 100%; (soil, spiked 1 μg/mL) 114%; (soil, spiked 5 μg/mL) 99.4%; (soil, spiked 10 μg/mL) 101%. Also, the Average recovery was found to be 98.2% (tap water, spiked 1 μg/mL); 97.4% (tap water, spiked 5 μg/mL); 99.1% (tap water, spiked 10 μg/mL). This molecule also returned a Found (river water, spiked 1 μg/mL) of 1.03 ± 0.023 µg/mL; a Found (river water, spiked 5 μg/mL) of 5.11 ± 0.043 µg/mL; a Found (river water, spiked 10 μg/mL) of 10.0 ± 0.034 µg/mL; a Found (soil, spiked 1 μg/mL) of 1.14 ± 0.047 µg/mL; a Found (soil, spiked 5 μg/mL) of 4.97 ± 0.049 µg/mL; a Found (soil, spiked 10 μg/mL) of 10.1 ± 0.030 µg/mL. For the same molecule, the Found by setting is: (tap water, spiked 1 μg/mL) 0.982 ± 0.034 µg/mL; (tap water, spiked 5 μg/mL) 4.87 ± 0.045 µg/mL; (tap water, spiked 10 μg/mL) 9.91 ± 0.037 µg/mL.

The record behind these values is paper PMC12288536, “Development of an atrazine immunoassay based on highly catalytically active Au@PtNPs and specific nanobody” (Research Square, 2025).
